Data: PubChem BioAssay AID330 (DTP/NCI, 2004)
The list does not hold the whole screen: it is rich in T/C values a quarter to a half above the control, in often repeated tests (any T/C) and in doses without a T/C. Other doses and runs of a compound stand elsewhere. T/C is the treated group as % of the vehicle group. Some entries give survivors of the animals treated and no T/C: the source files T/C as zero there, which appears to mark a toxic dose or a test without result, not a measured value. Some survivor counts are full or nearly so, which does not show that the dose was tolerated: survival well below the control is almost never listed, so the zero probably covers shortened survival too. Counts of survivors are from the toxicity check (mostly the fifth day) where no day follows; animals may have died later. Schedule codes are those of the source, taken here to give the interval after Q, in days (D) or hours (H), and the number of doses after X. Some entries were tested several times; their values stand side by side, smallest first. Where survival is the endpoint, this PubChem deposit counts one and a half times the control or more as active, and values a quarter to a half above the control carry no call in these data; other NCI protocols may use other cut-offs. Some T/C values are followed by the survivors on the day toxicity was checked, most often the fifth; without a count, all were alive then.

Tested on: P388 leukemia ip, CD2F1 mice, survival T/C
Experiment: NCI In Vivo Anticancer Drug Screen. Data for tumor model P388 Leukemia (intraperitoneal) in CD2F1 (CDF1) mice
Settings: T/C endpoint: median survival time, higher T/C = longer survival
[1] = dose: 60.0 mg/kg/injection, schedule: Q01DX005 (ip), vehicle: saline with Tween-80
[2] = dose: 12.5 mg/kg/injection, schedule: Q01DX005 (ip), vehicle: Klucel (hydroxypropylcellulose) (HPC)
[3] = dose: 25.0 mg/kg/injection, schedule: Q01DX005 (ip), vehicle: Klucel (hydroxypropylcellulose) (HPC)
[4] = dose: 50.0 mg/kg/injection, schedule: Q01DX005 (ip), vehicle: Klucel (hydroxypropylcellulose) (HPC)
[5] = dose: 100.0 mg/kg/injection, schedule: Q01DX005 (ip), vehicle: Klucel (hydroxypropylcellulose) (HPC)
[6] = dose: 200.0 mg/kg/injection, schedule: Q01DX005 (ip), vehicle: Klucel (hydroxypropylcellulose) (HPC)
[7] = dose: 120.0 mg/kg/injection, schedule: Q01DX005 (ip), vehicle: saline with Tween-80
[8] = dose: 240.0 mg/kg/injection, schedule: Q01DX005 (ip), vehicle: saline with Tween-80
[9] = dose: 400.0 mg/kg/injection, schedule: Q04DX003 (ip), vehicle: saline with Tween-80
[10] = dose: 50.0 mg/kg/injection, schedule: Q01DX009 (ip), vehicle: saline
[11] = dose: 200.0 mg/kg/injection, schedule: Q01DX005 (ip), vehicle: saline with Tween-80
[12] = dose: 30.0 mg/kg/injection, schedule: Q01DX005 (ip), vehicle: Klucel (hydroxypropylcellulose) (HPC)
[13] = dose: 60.0 mg/kg/injection, schedule: Q01DX005 (ip), vehicle: Klucel (hydroxypropylcellulose) (HPC)
[14] = dose: 120.0 mg/kg/injection, schedule: Q01DX005 (ip), vehicle: Klucel (hydroxypropylcellulose) (HPC)
[15] = dose: 240.0 mg/kg/injection, schedule: Q01DX005 (ip), vehicle: Klucel (hydroxypropylcellulose) (HPC)
[16] = dose: 200.0 mg/kg/injection, schedule: Q01DX009 (ip), vehicle: saline with Tween-80

CN=C(N)N/N=C(\C)c1ccc2oc3ccc(/C(C)=N/NC(N)=NC)cc3c2c1
T/C (dose: 6.25 mg/kg/injection, schedule: Q04DX002 (ip), vehicle: saline with Tween-80): 127 % of control | T/C (dose: 12.5 mg/kg/injection, schedule: Q04DX002 (ip), vehicle: saline with Tween-80): 136 % of control | T/C (dose: 25.0 mg/kg/injection, schedule: Q04DX002 (ip), vehicle: saline with Tween-80): 137 % of control | T/C (dose: 50.0 mg/kg/injection, schedule: Q04DX002 (ip), vehicle: saline with Tween-80): 148 % of control | T/C (dose: 100.0 mg/kg/injection, schedule: Q04DX002 (ip), vehicle: saline with Tween-80): 146 % of control

CC1(C)C(=O)N2C(=O)CC(=O)N2C1=O
survivor count [1]: 6 of 6

C[CH2][Sn]([O][Sn]([Cl])([CH2]C)[c]1ccccc1)[c]1ccccc1 (configuration not stated)
T/C (dose: 6.25 mg/kg/injection, schedule: Q01DX005 (ip), vehicle: Klucel (hydroxypropylcellulose) (HPC)): 125 % of control | T/C [2]: 138 % of control [4 of 6 alive] | T/C [3]: 126 % of control [5 of 6 alive] | survivor count [3]: 0 of 6 | survivor count [4]: 0 of 6 | survivor count [5]: 0 of 6 | survivor count [6]: 0 of 6

O=C(Nc1ccc(C2=NCCN2)cc1)c1cc2cc(C3=NCCN3)ccc2o1
survivor count (dose: 100.0 mg/kg/injection, schedule: Q04DX003 (ip), vehicle: suspension in saline): 2 of 6 | survivor count (dose: 200.0 mg/kg/injection, schedule: Q04DX003 (ip), vehicle: suspension in saline): 2 of 6 | survivor count (dose: 400.0 mg/kg/injection, schedule: Q04DX003 (ip), vehicle: suspension in saline): 0 of 6

CCOc1ccc2nc3cc(I)ccc3c(N)c2c1
survivor count [1]: 5 of 6 | survivor count [7]: 0 of 6 | survivor count [8]: 0 of 6

CC1(C)C2CCC(CN=C(N)CSS(=O)(=O)O)C1C2 (configuration not stated)
survivor count [1]: 1 of 6 | survivor count [7]: 0 of 6 | survivor count [8]: 0 of 6

CN(C)CCNc1ccc(O)c2sc3ccccc3c(=O)c12
survivor count [9]: 1 of 6

NS(=O)(=O)c1cccc(NC(=S)Nc2ccccc2)c1
survivor count (dose: 12.5 mg/kg/injection, schedule: Q01DX009 (ip), vehicle: saline): 5 of 5 | T/C [10]: 89, 100, 107, 127 % of control | survivor count [10]: 4 of 6

CN=C(NCCc1ccccc1)c1ccc(NC(=O)c2ccc(C(=O)Nc3ccc(C(=NC)NCCc4ccccc4)cc3)cc2)cc1
T/C [2]: 144 % of control | survivor count [3]: 0 of 6 and 4 of 6 | survivor count [4]: 0 of 6 | survivor count [5]: 0 of 6 | survivor count [6]: 0 of 6

C[C-]=NCCCl.C[C-]=O.[C-]#[O+].[C-]#[O+].[C-]#[O+].[C-]#[O+].[Re]
survivor count [5]: 2 of 5 | survivor count [6]: 0 of 5

CN(C)c1cccc(NC(=O)CC#N)c1
survivor count [11]: 0 of 6

CC(=O)O[C@@H]1C[C@@H]2[C@@]3(C)CC[C@@H](OC(=O)CC(=O)O)C(C)(C)[C@@H]3CC[C@@]2(C)[C@]2(C)CCCC([C@]3(C)CC[C@H](C(C)(C)O)O3)[C@@H]12 (some centres not stated)
survivor count [4]: 5 of 5

O=C(COc1ccc(Cl)cc1)NN1CCCCCC1
survivor count [12]: 3 of 6 | survivor count [13]: 0 of 6 | survivor count [14]: 0 of 6 | survivor count [15]: 0 of 6

SC1(S)CN2CCC1CC2
survivor count (dose: 25.0 mg/kg/injection, schedule: Q01DX009 (ip), vehicle: saline): 2 of 6

CN1C2C=CC(=O)C1C1C(=O)N(c3ccccc3)C(=O)C12 (configuration not stated)
T/C (dose: 70.0 mg/kg/injection, schedule: Q01DX005 (ip), vehicle: Klucel (hydroxypropylcellulose) (HPC)): 132 % of control | survivor count (dose: 140.0 mg/kg/injection, schedule: Q01DX005 (ip), vehicle: Klucel (hydroxypropylcellulose) (HPC)): 5 of 6

O=C(CI)N(O)c1ccccc1OCc1ccccc1
survivor count (dose: 100.0 mg/kg/injection, schedule: Q01DX001 (ip), vehicle: saline): 1 of 6 | survivor count (dose: 200.0 mg/kg/injection, schedule: Q01DX001 (ip), vehicle: saline): 1 of 6 | survivor count (dose: 400.0 mg/kg/injection, schedule: Q01DX001 (ip), vehicle: saline): 0 of 6

CC(C)NCC(O)COc1ccc(CCOC(=O)CCc2ccc(C(O)(C(F)(F)F)C(F)(F)F)cc2)cc1 (configuration not stated)
survivor count [8]: 3 of 6

Cc1csc(NC(=O)Nc2ccc(F)cc2[N+](=O)[O-])n1
survivor count [16]: 4 of 6

COc1cc(/C=C/C(C)=N/NC(N)=S)cc(OC)c1OC
survivor count [13]: 0 of 6 | survivor count [14]: 0 of 6 | survivor count [15]: 0 of 6

O=C(Cc1nc2ccccc2[nH]c1=O)N/N=C/c1ccc2c(c1)CCC2
survivor count [7]: 6 of 6 | survivor count [8]: 6 of 6

CCSc1nc2ccc(Nn3nnnc3-c3ccccc3)cc2s1
survivor count (dose: 100.0 mg/kg/injection, schedule: Q01DX009 (ip), vehicle: Klucel (hydroxypropylcellulose) (HPC)): 6 of 6

CSc1nc(N)c(I)c(Cl)n1
survivor count [9]: 0 of 6

OCCSCc1cnc2ccccn12
survivor count (dose: 100.0 mg/kg/injection, schedule: Q01DX009 (ip), vehicle: saline): 2 of 6

CC(Cl)CN1COc2ccc3ccc4c(c3c2C1)CN(CC(C)Cl)CO4 (configuration not stated)
T/C [6]: 126 % of control | T/C (dose: 400.0 mg/kg/injection, schedule: Q01DX005 (ip), vehicle: Klucel (hydroxypropylcellulose) (HPC)): 139 % of control

COc1ccc(CC2c3cc(OC)c(OC)c(OC)c3CC[N+]2(C)C)cc1Oc1ccc(CC2c3cc4c(c(OC)c3CC[N+]2(C)C)OCO4)cc1 (configuration not stated)
survivor count (dose: 6.25 mg/kg/injection, schedule: Q04DX003 (ip), vehicle: saline with Tween-80): 0 of 6 | survivor count (dose: 6.25 mg/kg/injection, schedule: Q04DX003 (ip), vehicle: saline): 3 of 6 | survivor count (dose: 12.5 mg/kg/injection, schedule: Q04DX003 (ip), vehicle: saline with Tween-80): 0 of 6 | survivor count (dose: 25.0 mg/kg/injection, schedule: Q04DX003 (ip), vehicle: saline with Tween-80): 0 of 6 | survivor count (dose: 100.0 mg/kg/injection, schedule: Q04DX003 (ip), vehicle: saline with Tween-80): 0 of 6 | survivor count (dose: 200.0 mg/kg/injection, schedule: Q04DX003 (ip), vehicle: saline with Tween-80): 0 of 6 | survivor count [9]: 0 of 6

COC(=O)CN(CCCl)P1(=O)OCCCN1CCCl (configuration not stated)
survivor count [8]: 1 of 6

Cc1ccc2ccc(CC(O)(c3ccccc3)c3ccccc3)nc2c1
survivor count [16]: 6 of 6

COc1ccc2c(c1O)-c1cccc3c1C(C2)N(CCOCCCl)CC3 (configuration not stated)
survivor count (dose: 200.0 mg/kg/injection, schedule: Q04DX003 (ip), vehicle: water): 2 of 6

OCC12COCN1COC2
T/C (dose: 400.0 mg/kg/injection, schedule: Q01DX009 (ip), vehicle: saline): 128 % of control

CCNc1ccc2c(c1)C(=O)N(OS(C)(=O)=O)C2=O
survivor count [11]: 2 of 6

CN(C)CCCO[Si](C)(c1ccccc1)c1ccc(F)cc1 (configuration not stated)
survivor count [16]: 0 of 6

CCOc1c(N=Nc2ccccc2O)c(C)nn1C(N)=S
survivor count [12]: 0 of 6 | survivor count [13]: 0 of 6 | survivor count [14]: 0 of 6 | survivor count [15]: 0 of 6

CCN(CC)CCOc1ccccc1/C=C/c1noc2ccccc12
survivor count (dose: 120.0 mg/kg/injection, schedule: Q01DX005 (ip), vehicle: saline): 3 of 6 | survivor count (dose: 240.0 mg/kg/injection, schedule: Q01DX005 (ip), vehicle: saline): 0 of 6

CN1CCC(OC(=O)c2ccc3ncccc3c2)CC1
survivor count (dose: 200.0 mg/kg/injection, schedule: Q04DX003 (ip), vehicle: saline): 0 of 6
